From article PMC6214133
These are yes or no findings as the source states them, for the method shown. In cells and extracts the contact can be indirect. A result given as binding can be weak or reduced; the word gives no strength.

Sequences of proteins named here, by UniProt entry; tags and fusion partners are left off. A change or cut given only in a name is not applied to a line headed by its entry.
UniProt Q8IZW8: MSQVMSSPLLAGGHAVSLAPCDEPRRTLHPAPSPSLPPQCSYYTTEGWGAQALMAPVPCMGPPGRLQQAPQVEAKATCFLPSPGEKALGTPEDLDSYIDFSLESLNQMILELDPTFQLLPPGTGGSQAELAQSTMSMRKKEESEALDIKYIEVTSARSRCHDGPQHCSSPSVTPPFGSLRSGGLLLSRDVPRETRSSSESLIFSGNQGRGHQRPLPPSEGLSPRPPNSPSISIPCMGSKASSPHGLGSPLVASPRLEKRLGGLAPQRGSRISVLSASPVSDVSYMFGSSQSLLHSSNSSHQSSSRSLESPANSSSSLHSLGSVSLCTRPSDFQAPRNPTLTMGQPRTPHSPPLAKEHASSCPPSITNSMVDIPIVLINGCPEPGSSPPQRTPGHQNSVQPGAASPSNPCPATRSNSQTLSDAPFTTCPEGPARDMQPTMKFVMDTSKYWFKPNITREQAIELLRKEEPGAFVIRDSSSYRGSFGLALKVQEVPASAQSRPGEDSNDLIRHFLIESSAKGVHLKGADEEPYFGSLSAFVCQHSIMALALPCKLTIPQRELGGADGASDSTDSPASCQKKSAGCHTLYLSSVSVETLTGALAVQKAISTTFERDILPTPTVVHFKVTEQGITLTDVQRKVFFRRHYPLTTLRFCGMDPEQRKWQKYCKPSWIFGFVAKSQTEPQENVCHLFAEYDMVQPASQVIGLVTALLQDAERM
UniProt P05556: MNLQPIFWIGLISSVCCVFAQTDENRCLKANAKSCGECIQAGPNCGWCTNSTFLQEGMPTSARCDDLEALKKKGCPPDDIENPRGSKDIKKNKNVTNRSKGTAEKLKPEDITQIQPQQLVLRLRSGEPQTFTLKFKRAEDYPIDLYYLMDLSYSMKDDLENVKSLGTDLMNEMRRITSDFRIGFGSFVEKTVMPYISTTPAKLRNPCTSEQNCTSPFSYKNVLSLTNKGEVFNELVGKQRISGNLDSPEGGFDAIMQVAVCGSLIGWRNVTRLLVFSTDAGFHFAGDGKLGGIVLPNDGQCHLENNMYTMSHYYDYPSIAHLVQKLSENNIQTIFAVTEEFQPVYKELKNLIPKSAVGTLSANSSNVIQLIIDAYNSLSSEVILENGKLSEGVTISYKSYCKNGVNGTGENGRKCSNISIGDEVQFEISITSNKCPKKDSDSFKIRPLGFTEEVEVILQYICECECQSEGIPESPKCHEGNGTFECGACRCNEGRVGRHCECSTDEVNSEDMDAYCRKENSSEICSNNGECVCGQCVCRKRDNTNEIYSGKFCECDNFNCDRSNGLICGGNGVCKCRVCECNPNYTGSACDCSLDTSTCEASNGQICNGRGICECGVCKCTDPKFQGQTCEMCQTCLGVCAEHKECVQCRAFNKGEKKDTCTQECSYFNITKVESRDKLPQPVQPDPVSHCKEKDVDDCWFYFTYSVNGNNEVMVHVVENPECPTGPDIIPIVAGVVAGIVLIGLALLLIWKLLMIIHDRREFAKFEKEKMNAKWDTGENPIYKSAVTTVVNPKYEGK

Target: C-terminal tensin-like protein (CTEN) (human (endogenous in RWPE-1)) (UniProt Q8IZW8)
Experiment: co-IP; RWPE-1 whole cell lysate (500 μg); precipitated with 2 μg anti-CTEN antibody or nonspecific rabbit IgG, 4 °C for 4 h, then protein A-Sepharose for 1 h; buffer 0.1% Triton X-100, 25 mM Tris-HCl pH 8.0, 50 mM NaCl, 0.2 mM EDTA; immunoblot with anti-integrin β1 and anti-CTEN

integrin β1 (from UniProt P05556 21-798) (receptor)
binding: binds
